Data published in PubChem BioAssay AID504594 (Broad Institute, 2011).
The whole screen tested about 2,000 compounds, of which fewer than 10 were called active.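 Rule for the calls: active = growth inhibition of at least 75% in every replicate, which also brings the mean inhibition to 75% or more; inconclusive = mean inhibition 75% or more but some replicate under 75%; inactive = the rest.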 The list shows a part of the results.

test: growth inhibition of PfHsp90-dependent yeast, primary screen, antimalarial PfHsp90 inhibitor project, S. cerevisiae, BacTiter-Glo luminescence (AID 504594);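 note: 0% = DMSO neutral control wells and 100% = 20 µM radicicol control wells; higher value means stronger growth inhibition because the sign is flipped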; details: S. cerevisiae expressing PfHsp90, BacTiter-Glo growth, 48 h; at 9.4 µM; active compounds read high

SMILES	growth inhibition
CCOC(=O)C(=O)N1CCN(c2ccccc2OC)CC1	inactive: 3.55%
CC(C)(Oc1ccc(CCNC(=O)c2ccc(Cl)cc2)cc1)C(=O)O	inactive: 2.38%
OCCN1CCN(CCCN2c3ccccc3Sc3ccc(C(F)(F)F)cc32)CC1	inactive: 5.63%
O=C(NC1CCCCC1)N1CCc2[nH]c3ccccc3c2C1	inactive: 1.47%
CCc1cc(=O)oc2cc(OCC=C(C)C)ccc12	inactive: 6.99%
Clc1ccc2c(c1)C(N1CCNCC1)=Nc1ccccc1O2	inactive: 0.31%
O=C1c2ccccc2C(=O)C1c1ccccc1	inactive: -20.8%
C/C=C/Cn1c(SC)nc2c1c(=O)[nH]c(=O)n2C	inactive: -1.22%
CC(C)C(=O)Nc1cccnc1	inactive: -6.33%
Clc1ccc(CCNc2ncnc3nc[nH]c23)cc1	inactive: -4.31%
CCOC(=O)c1cc2cc3ccccc3cc2[nH]1	inactive: -7.16%
COc1ccc(CNC(=O)C2CCN(C(=O)[C@@H](CC(C)C)NC(=O)OC(C)(C)C)CC2)cc1	inactive: 7.36%
CC(C)(CO)CNC(=O)CC1C(=O)NCCN1CC(c1ccccc1)c1ccccc1 (stereo not given)	inactive: 2.18%
CCOc1ccc(C(=O)C(C)=O)c(OCC)c1	inactive: 10.5%
COc1ccc(CN(CCC(c2ccc(F)cc2)C2CCOC(C)(C)C2)C(=O)c2ccco2)cc1 (stereo not given)	inactive: -5.42%
COc1ccc(CCCC(=O)O)c(C)c1	inactive: 4.34%
COCC1CCCN(Cc2cn[nH]c2-c2cc3ccccc3o2)C1 (stereo not given)	inactive: 4.05%
CCOc1cc(C=O)ccc1OCCSc1ccc(C)cc1	inactive: -2.97%
O=C1OC(c2ccc(O)cc2)(c2ccc(O)cc2)c2ccccc21	inactive: -0.13%
C[C@]12CC[C@@H]3c4ccc(O)cc4[C@@H](O)C[C@H]3[C@@H]1CC[C@@H]2O	inactive: -2.59%
C=C(CC)C(=O)c1ccc(OCC(=O)O)c(Cl)c1Cl	inactive: 6.24%
CCC(C)NCCOc1ccc(C(C)(C)c2ccccc2)cc1 (stereo not given)	inactive: -1.83%
Nc1ccc(S(=O)(=O)NC(=O)c2ccccc2)cc1	inactive: -2.29%
C[N+](C)(C)CCOP(=O)(O)OP(=O)([O-])OC[C@H]1O[C@@H](n2ccc(N)nc2=O)[C@H](O)[C@@H]1O	inactive: -19%
COC(=O)c1ccccc1NC(=O)NCc1ccccc1	inactive: -7.31%

Quoted from the listing.
Value of CC(C)(Oc1ccc(CCNC(=O)c2ccc(Cl)cc2)cc1)C(=O)O under growth inhibition: inactive: 2.38%
Value of Clc1ccc2c(c1)C(N1CCNCC1)=Nc1ccccc1O2 under growth inhibition: inactive: 0.31%
Value of CCC(C)NCCOc1ccc(C(C)(C)c2ccccc2)cc1 (stereo not given) under growth inhibition: inactive: -1.83%

Continued:

SMILES	growth inhibition
O=C(NCCc1ccccc1)C1CCN(C2CCN(Cc3ccco3)CC2)CC1	inactive: 5.2%
c1ccc2c(c1)CCCC2C1=NCCN1 (stereo not given)	inactive: -9.12%
CCCCN1C[C@H](O)[C@@H](O)[C@H](O)[C@H]1CO	inactive: 7.58%
CCCc1cc(C(N)=S)ccn1	inactive: 1.14%
Cc1ccc2[nH]c3c(c2c1)CN(C)CC3	inactive: -12%
CC(=O)c1cc2c(cc1NC(=O)c1ccco1)OCCO2	inactive: 2.24%
CC(C)CCOCC(=O)Nc1cccc(C(=O)O)c1	inactive: 1.88%
CC(=O)OC(CC(=O)O)C[N+](C)(C)C (stereo not given)	inactive: -9.33%
CC1(C)Cc2ccccc2C(C(Cc2ccccc2)C(N)=O)=N1 (stereo not given)	inactive: -4.58%
COc1ccc2oc(C)c(C(N)=O)c2c1	inactive: -0.848%
CN1CCN(CC/C=C2/c3ccccc3Sc3ccc(S(=O)(=O)N(C)C)cc32)CC1	inactive: -10.9%
CN1CCC(=C2c3ccccc3C=Cc3ccccc32)CC1	inactive: -8.51%
Cn1cc(CN(CCO)Cc2cccs2)c(-c2cccc(Cl)c2)n1	inactive: -3.65%
CC[N+](C)(C)c1cccc(O)c1	inactive: -5.71%
COc1ccc(C(=O)NCC2OCCc3ccccc32)cc1 (stereo not given)	inactive: -3.22%
CCCCN(CCCC)CCCOC(=O)c1ccc(N)cc1	inactive: 2.37%
O=C(NCc1ccc2c(c1)OCO2)c1ccc2c(c1)OCCO2	inactive: -10.6%
O=C(O)CCCCCCCC(=O)O	inactive: -4.17%
O=C(NC(=S)Nc1ccc2c(c1)OCCO2)c1ccccc1F	inactive: 11.3%
NS(=O)(=O)c1cc(C2(O)NC(=O)c3ccccc32)ccc1Cl (stereo not given)	inactive: -8.46%
COc1ccc(NC(=O)C2CCCN2C(=O)OC(C)(C)C)cc1 (stereo not given)	inactive: -4.53%
CC(=O)Nc1ccc(OS(=O)(=O)c2c(C)cc(C)cc2C)cc1	inactive: 10.9%
CC(=O)OCC(=O)[C@@]1(O)CC[C@H]2[C@@H]3CCC4=CC(=O)CC[C@]4(C)[C@H]3[C@@H](O)C[C@@]21C	inactive: -11%
COc1ccc(OC)c(-c2oc3ccccc3c(=O)c2O)c1	inactive: -8.17%
Cc1nc2ccccc2c(=O)n1N	inactive: -6.14%

Among those listed so far, these have nitrogen in an aromatic ring:
SMILES	growth inhibition
O=C(NC1CCCCC1)N1CCc2[nH]c3ccccc3c2C1	inactive: 1.47%
C/C=C/Cn1c(SC)nc2c1c(=O)[nH]c(=O)n2C	inactive: -1.22%
CC(C)C(=O)Nc1cccnc1	inactive: -6.33%
Clc1ccc(CCNc2ncnc3nc[nH]c23)cc1	inactive: -4.31%
CCOC(=O)c1cc2cc3ccccc3cc2[nH]1	inactive: -7.16%
COCC1CCCN(Cc2cn[nH]c2-c2cc3ccccc3o2)C1 (stereo not given)	inactive: 4.05%
C[N+](C)(C)CCOP(=O)(O)OP(=O)([O-])OC[C@H]1O[C@@H](n2ccc(N)nc2=O)[C@H](O)[C@@H]1O	inactive: -19%
CCCc1cc(C(N)=S)ccn1	inactive: 1.14%
Cc1ccc2[nH]c3c(c2c1)CN(C)CC3	inactive: -12%
Cn1cc(CN(CCO)Cc2cccs2)c(-c2cccc(Cl)c2)n1	inactive: -3.65%
Cc1nc2ccccc2c(=O)n1N	inactive: -6.14%

(further entries)

SMILES	growth inhibition
N#CCC(N)=C(C#N)C#N	inactive: 3.45%
CCN(CC)CCOC(=O)C1(C2CCCCC2)CCCCC1	inactive: -2.13%
CN(C)CCCN1c2ccccc2Sc2ccc(C(F)(F)F)cc21	inactive: 2.24%
Cc1ccc2c(c1)c1c(n2C)C(=O)CCC1	inactive: 10.2%
CCNC1=C(Cl)C(=O)c2ccccc2C1=O	inactive: -6.29%
COc1c(O)ccc2c1CN1CCc3cc4c(cc3C1C2)OCO4 (stereo not given)	inactive: -1.12%
COC(=O)C1=C(C)NC(C)=C([N+](=O)[O-])C1c1ccccc1C(F)(F)F (stereo not given)	inactive: -11%
Nc1ccc(-c2nc3ncccc3o2)c(Cl)c1	inactive: -2.71%
O=C1C2CC=C(Cl)CC2C(=O)N1CCc1c[nH]c2ccccc12 (stereo not given)	inactive: 17.8%
CCn1cc(CN2N=C(C)CC2c2ccccc2)c(C)n1 (stereo not given)	inactive: 4.11%
CC[N+](C)(CC)CCOC(=O)C(O)(c1ccccc1)C1CCCCC1 (stereo not given)	inactive: -1.82%
CCOc1ccccc1Oc1coc2cc(OCC(=O)O)ccc2c1=O	inactive: -4.8%
C/C=C/c1ccc(OCCCCN2CC(C)CC(C)C2)c(OC)c1 (stereo not given)	inactive: 8.04%
O=C(Cc1ccc(Br)cc1)c1ccc(O)cc1O	inactive: -5.8%
COc1cc(/C=C/C(=O)O)cc(S(=O)(=O)NCCCO)c1OC	inactive: 9.49%
CN(C)c1ccc(C(CN)c2c[nH]c3ccccc23)cc1 (stereo not given)	inactive: 2.99%
O=C(NC(=S)Nc1ccc(N2CCN(C(=O)c3ccccc3)CC2)cc1)c1cccs1	inactive: 6.16%
COc1ccc2[nH]c(=O)c3c(c2c1)OC(C)(C)C=C3	inactive: 21.2%
Cc1ccc(-c2nnc(-c3ccc4c(c3)OCO4)o2)cc1	inactive: -1.21%
O=C(O)Cc1ccc(-c2ccccc2)cc1	inactive: -3.02%
CCOC(=O)C1=C2c3ccc4ccccc4c3CC(C)(C)N2C(=O)C1=O	inactive: -0.655%
C[C@@H]1C[C@H]2[C@@H]3C[C@H](F)C4=CC(=O)C=C[C@]4(C)[C@@]3(F)[C@@H](O)C[C@]2(C)[C@@]1(O)C(=O)CO	inactive: 2.68%
O=C(/C=C/c1ccc(F)cc1)N1CC[C@@]2(O)CCCC[C@H]2C1	inactive: 1.03%
O=C1N=c2ccccc2=C1c1[nH]c(=S)[nH]c1O	inactive: -4.23%
COc1ccccc1N1C(=O)C2CC(C)=C(C)CC2C1=O (stereo not given)	inactive: 4.44%

SMILES	growth inhibition
O=C1C(O)CC2c3ccccc3CC3(CCCC3)N12 (stereo not given)	inactive: -7.1%
CCCCCCCCCC(=O)OCC(O)CO (stereo not given)	inactive: -11.4%
CN1CCN(C2=Nc3ccccc3Oc3ccc(Cl)cc32)CC1	inactive: 2.19%
Cc1cccc(N2C(=O)C3C(c4ccccc4)OC4(C(=O)c5ccccc5C4=O)C3C2=O)c1 (stereo not given)	inactive: -4.85%
Cc1c(Cc2ccccc2)c(=O)oc2c(CN(C)C)c(O)c(Cl)cc12	inactive: -2.33%
COc1ccc(-c2cc(=O)oc3cc(OC(C)C(=O)O)ccc23)cc1 (stereo not given)	inactive: -0.213%
COC(=O)[C@H]1[C@H]2C[C@@H]3c4[nH]c5cc(OC)ccc5c4CCN3C[C@H]2C[C@@H](OC(=O)c2ccc(N)cc2)[C@@H]1OC	inactive: -9.87%
CC(C)CC(NC(=O)CNC(=O)C1O[C@@H]2OC(C)(C)O[C@@H]2[C@H]2OC(C)(C)O[C@@H]12)C(=O)O (stereo not given in full)	inactive: 2.68%
COc1ccc2c(C=O)cn(C)c2c1	inactive: -2.92%
CSCC[C@H](NC(=O)NC1CCCC1)C(=O)O	inactive: -15.5%
CC(=O)C1=C(NC(=O)c2ccc(C(F)(F)F)cc2)C[C@@H]2[C@H]1C2(C)C	inactive: -3.86%
COc1ccc(CC(=O)Nc2cccc(C(=O)Nc3ccccc3C(=O)O)c2)cc1OC	inactive: -0.658%
O=C(O)C1CSC(c2ccco2)N1 (stereo not given)	inactive: -10.3%
CC(C)(C)N1NC2(CCCCC2)NC1=S	inactive: -6.24%
Cc1cc(=O)oc2c(CN(C)Cc3ccccc3)c(O)ccc12	inactive: -5.11%
O=C(O)c1ccc(-c2ccc(O)c(F)c2)cc1	inactive: -3.08%
NC(=O)C1CCCNC1 (stereo not given)	inactive: -14.5%
CCCCOn1c(C)c(C(C)=O)c2c3no[n+]([O-])c3ccc21	inactive: -14.4%
CC(C)COC(=O)C1C(=O)CC(C)(O)C(C(=O)OCC(C)C)C1c1cccnc1 (stereo not given)	inactive: 7.28%
Nc1nc(Cl)nc2c1ncn2[C@@H]1O[C@H](CO)[C@@H](O)[C@H]1O	inactive: -0.0217%
CCOC(=O)c1oc2cc(O)cc(C)c2c(=O)c1-c1cscn1	inactive: 7.26%
COc1ccc(N2C(=O)C3C(C2=O)C(C(=O)c2ccccc2)N2CCCC32)cc1 (stereo not given)	inactive: 3.07%
COc1cccc(C2CCCN2Cc2nc(CCC(C)C)no2)c1 (stereo not given)	inactive: 11.4%
O=C1N[C@@H](Cc2cnc[nH]2)C(=O)N2CCC[C@@H]12	inactive: 1.69%
C[C@@H]1C[C@H]2[C@@H]3CCC4=CC(=O)C=C[C@]4(C)[C@@]3(F)[C@@H](O)C[C@]2(C)[C@@]1(O)C(=O)COP(=O)(O)O	inactive: 19.7%
